Results as given in US20190037848A1, “Novel isothiazolamides, processes for their preparation and their use as herbicides and/or plant growth regulators” (BAYER CROPSCIENCE AKTIENGESELLSCHAFT, priority 2014, published 2019).
Some of these results come from one statement about several compounds together. Some compounds share one range, which may span the group rather than tell each member.

Legend:
[1] = system: harmful plants ALOMY, AVEFA, ECHCG, LOLMU, SETVI, ABUTH, AMARE, MATIN, PHBPU, POLCO, STEME, VIOTR, VERPE; test: Herbicidal post-emergence action (greenhouse pot test); assay type: in vivo; details: post-emergence method, against several harmful plants; for very good activity (herbicidal): 80 g of active substance per hectare; for excellent activity (herbicidal): 320 g of active substance per hectare
[2] = system: harmful plants ALOMY, AVEFA, ECHCG, LOLMU, SETVI, ABUTH, AMARE, MATIN, PHBPU, POLCO, STEME, VIOTR, VERPE; test: Herbicidal pre-emergence action (greenhouse pot test); assay type: in vivo; details: pre-emergence method, against several harmful plants; for very good activity (herbicidal): 80 g of active substance per hectare; for excellent activity (herbicidal): 320 g of active substance per hectare

Row | SMILES | very good activity (herbicidal) [1] | excellent activity (herbicidal) [1] | very good activity (herbicidal) [2] | excellent activity (herbicidal) [2]
1 | O=C(CF)Nc1nsc(C(=O)NCC2CCCCC2)c1Cl [II-50] | 80-100% | 90-100% | 80-100% | 90-100%
2 | O=C(CF)Nc1nsc(C(=O)NCc2ccc(F)cc2F)c1Cl [II-56] | 80-100% | 90-100% | 80-100% | 90-100%
